Experimental data: PubChem BioAssay AID1224830 (NIAID, 2016)

Test: 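Genes whose knock-down alters the TNF-alpha reporter response to LPS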 (primary screen)
System: human THP-1 monocytic leukaemia cells, TNF dual-luciferase reporter clone, PMA-differentiated to macrophage-like cells
Reagents: siRNA pool against human genes, 50 nM
Duration: LPS for 4 h, given about 3 days after siRNA transfection
Challenge: bacterial LPS (TLR4 ligand), 10 ng/ml
Read-out: 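TNF firefly reporter luminescence divided by renilla, normalised to the plate median, then turned into a robust z-score for each replicate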
Direction: TNF reporter robust z-score: higher = stronger TNF reporter response to LPS
Call rule: 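Each well counts as active if its z-score is over 2.8 or under -1.5; controls are left without a call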
In all, the deposit lists about 18,000 reagents; shown is an unselected part. About 2,900 of them (16%) were called active. 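Calls are made per well; low scores hint the gene aids the LPS response, high scores that it dampens it.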 Entries without a mark were called inactive. Repeated entries: four replicate wells of each siRNA pool.

For LZTS2, what was measured?
TNF reporter robust z-score: -2.11 (active)

With LZTS2, what does the deposit list?
TNF reporter robust z-score: -2.04 (active)

What did the screen give for LZTS2?
TNF reporter robust z-score: -2.13 (active)

With LZTS2, how do the results read?
TNF reporter robust z-score: -2.15 (active)

What is on record for MICU2?
TNF reporter robust z-score: 0.28

For MICU2, what does the deposit list?
TNF reporter robust z-score: 0.65

With MICU2, how do the results read?
TNF reporter robust z-score: 1.07

For MICU2, how do the results read?
TNF reporter robust z-score: 2.17

What did the screen give for LCLAT1?
TNF reporter robust z-score: 0.47

With LCLAT1, what does the deposit list?
TNF reporter robust z-score: 0.65

For LCLAT1, what does the deposit list?
TNF reporter robust z-score: 0.1

What did the screen give for LCLAT1?
TNF reporter robust z-score: -0.43

Which result is listed for NKX6-3?
TNF reporter robust z-score: 6.43 (active)

Which result is listed for NKX6-3?
TNF reporter robust z-score: 0.99

For NKX6-3, what does the deposit list?
TNF reporter robust z-score: 1.82

With NKX6-3, what does the deposit list?
TNF reporter robust z-score: -0.28

With CDRT4, what does the deposit list?
TNF reporter robust z-score: 1.54

What is on record for CDRT4?
TNF reporter robust z-score: 2.01

With CDRT4, how do the results read?
TNF reporter robust z-score: 0.83

For CDRT4, what does the deposit list?
TNF reporter robust z-score: -0.53

With CNNM1, what was measured?
TNF reporter robust z-score: -0.37

For CNNM1, what does the deposit list?
TNF reporter robust z-score: 0.01

What did the screen give for CNNM1?
TNF reporter robust z-score: -0.86

With CNNM1, what does the deposit list?
TNF reporter robust z-score: 0.22

What did the screen give for DIP2B?
TNF reporter robust z-score: 0.88

Which result is listed for DIP2B?
TNF reporter robust z-score: 1.52

What did the screen give for DIP2B?
TNF reporter robust z-score: 1.84

What did the screen give for DIP2B?
TNF reporter robust z-score: 0.31

What is on record for AGFG2?
TNF reporter robust z-score: 0.76

For AGFG2, what does the deposit list?
TNF reporter robust z-score: 0.9

What did the screen give for AGFG2?
TNF reporter robust z-score: 1.86

What is on record for AGFG2?
TNF reporter robust z-score: 2.13

Which result is listed for HAPLN2?
TNF reporter robust z-score: -0.73

How did the screen score HAPLN2?
TNF reporter robust z-score: -0.91

How did the screen score HAPLN2?
TNF reporter robust z-score: -1.14

What did the screen give for HAPLN2?
TNF reporter robust z-score: 0.12

What is on record for CASP5?
TNF reporter robust z-score: -0.41

With CASP5, what was measured?
TNF reporter robust z-score: -0.12

For CASP5, what was measured?
TNF reporter robust z-score: -0.46

For CASP5, what does the deposit list?
TNF reporter robust z-score: -0.14

For DOK5, how do the results read?
TNF reporter robust z-score: 1.53

Which result is listed for DOK5?
TNF reporter robust z-score: 4.81 (active)

For DOK5, how do the results read?
TNF reporter robust z-score: 0.65

With DOK5, what was measured?
TNF reporter robust z-score: 2.32

Which result is listed for SPEM2?
TNF reporter robust z-score: 1.74

How did the screen score SPEM2?
TNF reporter robust z-score: 1.11

How did the screen score SPEM2?
TNF reporter robust z-score: -0.79

For SPEM2, what was measured?
TNF reporter robust z-score: -0.63

With SPEM2, what was measured?
TNF reporter robust z-score: 3.15 (active)

With SPEM2, what was measured?
TNF reporter robust z-score: 3.31 (active)

For SPEM2, what does the deposit list?
TNF reporter robust z-score: 1.02

For SPEM2, how do the results read?
TNF reporter robust z-score: 2.18

8 successive records from above, quoted:
SPEM2 | TNF reporter robust z-score: 1.74
SPEM2 | TNF reporter robust z-score: 1.11
SPEM2 | TNF reporter robust z-score: -0.79
SPEM2 | TNF reporter robust z-score: -0.63
SPEM2 | TNF reporter robust z-score: 3.15 (active)
SPEM2 | TNF reporter robust z-score: 3.31 (active)
SPEM2 | TNF reporter robust z-score: 1.02
SPEM2 | TNF reporter robust z-score: 2.18
